No constants are given. Whether binding was seen depends on the method and setting. Binding seen in cells or lysates may run through a third protein. Some entries that bind do so weakly or less than the wild type.
Molecular target: T1, Polypeptide N-acetylgalactosaminyltransferase 7 (human (endogenous in THP-1)) (UniProt Q86SF2)
T1 sequence: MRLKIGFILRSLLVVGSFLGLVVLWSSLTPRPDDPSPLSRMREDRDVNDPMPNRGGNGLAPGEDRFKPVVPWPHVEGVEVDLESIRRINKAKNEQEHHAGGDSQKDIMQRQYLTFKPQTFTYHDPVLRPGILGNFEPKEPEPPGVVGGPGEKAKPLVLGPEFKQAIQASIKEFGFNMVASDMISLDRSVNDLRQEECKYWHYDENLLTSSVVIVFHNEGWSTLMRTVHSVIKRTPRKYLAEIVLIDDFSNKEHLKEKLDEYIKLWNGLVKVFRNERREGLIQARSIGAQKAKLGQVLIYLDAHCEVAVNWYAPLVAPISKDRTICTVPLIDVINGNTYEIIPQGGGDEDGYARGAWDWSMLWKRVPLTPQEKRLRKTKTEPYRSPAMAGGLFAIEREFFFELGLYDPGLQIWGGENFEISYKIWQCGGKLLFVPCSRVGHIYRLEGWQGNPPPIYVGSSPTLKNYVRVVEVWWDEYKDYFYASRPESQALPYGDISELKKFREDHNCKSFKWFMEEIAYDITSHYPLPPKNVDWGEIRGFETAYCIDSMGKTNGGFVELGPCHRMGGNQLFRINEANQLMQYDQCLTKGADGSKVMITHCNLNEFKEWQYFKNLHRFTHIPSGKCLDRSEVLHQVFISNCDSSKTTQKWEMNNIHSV
Experiment: co-IP; THP-1 cell lysates incubated with anti-GALNT7 or TSHR antibodies or normal IgG overnight at 4°C, then protein A/G agarose 4 h at 4°C; Western blot; whole-cell lysate as input

The chains behind the UniProt entries cited, without tags or fusion partners. Residues count along the entry.
UniProt P16473, residues 21-764: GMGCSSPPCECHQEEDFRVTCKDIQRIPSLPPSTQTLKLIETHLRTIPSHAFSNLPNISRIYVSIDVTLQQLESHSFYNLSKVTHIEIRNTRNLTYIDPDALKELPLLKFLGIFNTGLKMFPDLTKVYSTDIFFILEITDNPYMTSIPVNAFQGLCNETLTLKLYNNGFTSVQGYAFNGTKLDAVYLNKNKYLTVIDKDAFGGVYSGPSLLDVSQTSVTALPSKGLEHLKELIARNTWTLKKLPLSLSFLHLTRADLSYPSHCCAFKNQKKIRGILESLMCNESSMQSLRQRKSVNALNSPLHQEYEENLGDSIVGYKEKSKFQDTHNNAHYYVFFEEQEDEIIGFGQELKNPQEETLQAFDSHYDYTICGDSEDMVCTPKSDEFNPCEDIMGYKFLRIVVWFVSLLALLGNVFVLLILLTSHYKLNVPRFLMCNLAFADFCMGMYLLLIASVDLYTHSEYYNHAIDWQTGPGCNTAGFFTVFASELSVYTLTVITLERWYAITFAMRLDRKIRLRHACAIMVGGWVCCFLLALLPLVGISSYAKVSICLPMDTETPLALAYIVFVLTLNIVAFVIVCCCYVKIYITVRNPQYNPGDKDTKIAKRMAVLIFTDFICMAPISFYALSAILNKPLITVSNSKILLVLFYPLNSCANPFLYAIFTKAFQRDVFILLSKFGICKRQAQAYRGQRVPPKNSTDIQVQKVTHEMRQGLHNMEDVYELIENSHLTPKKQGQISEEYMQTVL

binding: binds
Substance: Thyroid stimulating hormone receptor (from UniProt P16473 21-764)
